Here are results for four molecules from paper PMC6317315.

By UniProt entry, the sequences of proteins in these tests, tags left out. Where a name states a change or a piece, a line headed by the entry shows the natural chain unless it says otherwise.
UniProt Q23096: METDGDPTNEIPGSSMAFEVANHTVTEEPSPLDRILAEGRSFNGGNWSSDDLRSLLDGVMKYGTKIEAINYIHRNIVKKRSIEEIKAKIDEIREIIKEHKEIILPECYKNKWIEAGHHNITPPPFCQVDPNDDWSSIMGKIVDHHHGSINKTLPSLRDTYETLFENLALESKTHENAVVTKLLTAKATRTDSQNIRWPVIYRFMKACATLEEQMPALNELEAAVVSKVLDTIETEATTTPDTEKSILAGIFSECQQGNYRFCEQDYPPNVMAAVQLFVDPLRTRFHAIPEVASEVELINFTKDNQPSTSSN

Assay [1] addresses T1, piRNA silencing-defective 1 (PRDE-1) (C. elegans (endogenous in N2 animals)) (UniProt O17828).
T1 sequence: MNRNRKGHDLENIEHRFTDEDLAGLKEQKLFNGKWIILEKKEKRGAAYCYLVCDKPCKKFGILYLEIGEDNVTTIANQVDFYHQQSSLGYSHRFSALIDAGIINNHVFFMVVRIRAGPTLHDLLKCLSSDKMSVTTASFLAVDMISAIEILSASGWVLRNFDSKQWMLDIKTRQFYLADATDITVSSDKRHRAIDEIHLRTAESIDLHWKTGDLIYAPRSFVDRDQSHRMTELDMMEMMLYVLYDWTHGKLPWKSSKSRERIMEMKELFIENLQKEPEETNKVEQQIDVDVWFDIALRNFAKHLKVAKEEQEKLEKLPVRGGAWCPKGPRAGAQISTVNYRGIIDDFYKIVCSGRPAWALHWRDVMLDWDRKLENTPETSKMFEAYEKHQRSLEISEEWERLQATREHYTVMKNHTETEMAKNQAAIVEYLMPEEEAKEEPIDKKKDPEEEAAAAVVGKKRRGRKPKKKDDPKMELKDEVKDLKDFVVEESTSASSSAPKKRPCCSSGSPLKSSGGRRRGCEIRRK
Briefly: SEC; 5 mL worm nuclear extract on Superose6 xK 16/70, 1-mL fractions, TCA precipitation, Western blot for PRDE-1 and TOFU-5. For orientation: In gel filtration, larger molecules generally elute earlier.

The target in assay [2] is T2, full-length C. elegans PRDE-1 protein (amino acids 1–526), yeast two-hybrid fusion (C. elegans) (UniProt O17828).
T2 sequence: T1 sequence
In words: two-hybrid; LexA-DBD baits in pB27 screened by mating against a random-primed C. elegans mixed-stage cDNA library in pP6; selection without Trp, Leu, His (0.5 mM 3-aminotriazole for LexA-Prde-1); Hybrigenics Services.

The target of assay [3] is T3, full-length C. elegans SNPC-4 protein (amino acids 1–928), yeast two-hybrid fusion (C. elegans) (UniProt P91868).
T3 sequence: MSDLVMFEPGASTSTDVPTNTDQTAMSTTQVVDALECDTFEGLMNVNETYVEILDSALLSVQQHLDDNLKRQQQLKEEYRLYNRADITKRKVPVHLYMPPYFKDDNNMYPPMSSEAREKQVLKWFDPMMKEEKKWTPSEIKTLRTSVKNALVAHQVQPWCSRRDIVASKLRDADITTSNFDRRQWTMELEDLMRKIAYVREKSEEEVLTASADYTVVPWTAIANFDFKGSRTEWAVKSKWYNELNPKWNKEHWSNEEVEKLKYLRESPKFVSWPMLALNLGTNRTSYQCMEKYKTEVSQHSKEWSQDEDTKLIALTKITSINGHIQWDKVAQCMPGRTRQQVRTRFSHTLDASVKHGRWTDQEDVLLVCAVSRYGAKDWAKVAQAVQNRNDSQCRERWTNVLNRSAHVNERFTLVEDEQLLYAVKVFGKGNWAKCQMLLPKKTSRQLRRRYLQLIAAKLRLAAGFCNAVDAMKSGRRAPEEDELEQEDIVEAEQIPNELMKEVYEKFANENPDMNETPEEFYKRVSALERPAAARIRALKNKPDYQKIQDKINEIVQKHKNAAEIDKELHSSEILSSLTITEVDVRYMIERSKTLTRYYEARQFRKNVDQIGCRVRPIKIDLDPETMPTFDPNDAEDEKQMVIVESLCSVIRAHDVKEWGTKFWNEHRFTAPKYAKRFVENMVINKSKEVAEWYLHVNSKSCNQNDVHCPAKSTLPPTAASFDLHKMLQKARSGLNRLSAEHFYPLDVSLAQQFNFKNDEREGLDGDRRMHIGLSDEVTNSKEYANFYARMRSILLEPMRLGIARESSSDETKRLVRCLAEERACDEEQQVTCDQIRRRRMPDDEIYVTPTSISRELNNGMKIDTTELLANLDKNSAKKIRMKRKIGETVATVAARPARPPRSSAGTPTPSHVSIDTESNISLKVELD
The assay is described as above.

Assay [4] deals with full-length C. elegans TOFU-5 protein (amino acids 1–311), yeast two-hybrid fusion (C. elegans) (UniProt Q23096). The description is as above.

Results are given in words; binding and its absence hold for the method and conditions named. Binding can be weak; no strength is given. For some of these results: Where a sequence is shown, tags or fusion partners need not be part of it.

As for “twenty-one-U fouled-up 5 (TOFU-5) (from UniProt Q23096)”, the binding entry in assay [1] was “binds”.

With “C. elegans TOFU-4 protein fragment (amino acids 1–223), yeast two-hybrid fusion (domain or fragment)”, in assay [2], the binding entry is listed as “binds”.

With “full-length C. elegans TOFU-5 protein (amino acids 1–311), yeast two-hybrid fusion (from UniProt Q23096)”, in assay [3], the binding result is on record as “binds”.

B1: full-length C. elegans SNPC-4 protein (amino acids 1–928), yeast two-hybrid fusion (protein, UniProt P91868-2 1-928)
chain: T3 sequence
Regarding B1, the binding entry in assay [4] is listed as “binds”.
